This passage reports binding results from PMC4604685.

By UniProt entry, the sequences of proteins in these tests, tags left out.
UniProt P04797: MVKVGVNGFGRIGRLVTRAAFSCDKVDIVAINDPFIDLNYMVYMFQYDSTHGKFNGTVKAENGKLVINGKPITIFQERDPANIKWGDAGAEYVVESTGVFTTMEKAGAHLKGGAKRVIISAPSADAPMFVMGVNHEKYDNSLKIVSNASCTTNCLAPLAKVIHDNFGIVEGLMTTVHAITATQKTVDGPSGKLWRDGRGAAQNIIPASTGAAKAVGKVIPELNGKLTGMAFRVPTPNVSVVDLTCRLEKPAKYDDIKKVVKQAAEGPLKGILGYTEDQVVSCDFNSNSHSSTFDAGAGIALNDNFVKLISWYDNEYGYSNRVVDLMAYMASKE

These are yes or no findings as the source states them, for the method shown. Binding seen in cells or lysates may run through a third protein.

The target of the experiment is glyceraldehyde-3-phosphate dehydrogenase (GAPDH), endogenous in PC12 cells (rat (endogenous in PC12)) (UniProt P04797). In words: co-IP; immunoprecipitation of GAPDH from total lysates of PC12 cells expressing Q74, RIPA buffer without detergent (Triton X-100); blots for organelle marker proteins.

B1: calnexin (protein, UniProt P35565 21-591)
chain: HDGHDDDMIDIEDDLDDVIEEVEDSKSKSDTSTPPSPKVTYKAPVPTGEVYFADSFDRGSLSGWILSKAKKDDTDDEIAKYDGKWEVDEMKETKLPGDKGLVLMSRAKHHAISAKLNKPFLFDTKPLIVQYEVNFQNGIECGGAYVKLLSKTSELNLDQFHDKTPYTIMFGPDKCGEDYKLHFIFRHKNPKTGVYEEKHAKRPDADLKTYFTDKKTHLYTLILNPDNSFEILVDQSVVNSGNLLNDMTPPVNPSREIEDPEDRKPEDWDERPKIADPDAVKPDDWDEDAPSKIPDEEATKPEGWLDDEPEYIPDPDAEKPEDWDEDMDGEWEAPQIANPKCESAPGCGVWQRPMIDNPNYKGKWKPPMIDNPNYQGIWKPRKIPNPDFFEDLEPFRMTPFSAIGLELWSMTSDIFFDNFIISGDRRVVDDWANDGWGLKKAADGAAEPGVVGQMLEAAEERPWLWVVYILTVALPVFLVILFCCSGKKQSNAMEYKKTDAPQPDVKDEEGKEEEKNKGDEEEEEEKLEEKQKSDAEEDGGTGSQDEEDSKPKAEEDEILNRSPRNRKPRRE
Turning to B1, the binding entry was “no binding”.
